These results are taken from PubChem BioAssay AID2685 (National Center for Advancing Translational Sciences (NCATS), 2010).

This assay can be described thus: qHTS Assay for Lipid Storage Modulators in Drosophila S3 Cells.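 On cell number change: cells counted by Cell Tracker Red CMTPX staining in the red channel.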 Particulars: BODIPY lipid droplet fluorescence, 18-24 h; for cell number change: measured here: cell count max response, cells fed with added oleic acid. The essentials: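 Laser-scanning cytometry quantifies lipid droplet accumulation (500–530 nm total intensity; droplet/cell object ratio) in oleic acid-fed (400 uM added) Drosophila S3 cells treated with a concentration series. 20 uM Triacsin C defined 100% inhibition.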
In general terms: Quantitative high-throughput screening tests each substance at several concentrations.

Setting [1] is: measured here: lipid fluorescence (Fed channel) AC50, cells fed with added oleic acid.
The mark [2] stands for this setting: measured here: cell number channel AC50, cells fed with added oleic acid.

The other results are listed elsewhere or left out. The main result of the screen is listed elsewhere. These columns were measured beside it and carry no call. Compounds called inactive in the main read-out are mostly missing here. The note in brackets gives the kind of curve behind each potency; many fits are weak.

With `CCc1c(C)nc(N)n2c(SCC(=O)NC3CCCCC3)nnc12`, under setting [1], the AC50 is 16400 nM [falling, partial curve, poor fit].

`CCCN1CCN(C(=O)c2ccc(-c3ccc([N+](=O)[O-])cc3)o2)CC1`: the cell number change stood at 15.5%. The AC50 under setting [2] is 920 nM [falling, full curve]. Also, the AC50 under setting [1] is 6510 nM [falling, single point].

On to `COc1cc(-c2cc(C(=O)Nc3c(Cl)cc(Cl)cc3Cl)c3ccccc3n2)cc(OC)c1OC`, for which the AC50 under setting [1] is 32600 nM [rising, single point].

For the molecule `COc1ccc(NC(=O)CSc2nnc3ccc(-c4cccnc4)nn23)cc1OC`, the cell number change was 6.23%. Moreover, the AC50 under setting [1] is 5170 nM [falling, single point].

For the molecule `COc1ccc(C2SCC(=O)N2CCCN(C)C)cc1` (centres undefined), the cell number change came out at 31.9%. The AC50 under setting [2] was 32600 nM [rising, single point].

On to `Cc1ccc(CN2CCN(/N=C/c3ccccc3)CC2)cc1`, for which the cell number change was -18.6%. Further, the AC50 under setting [1] is 4.11 nM [falling, full curve, poor fit].

Regarding `O=C(O)C1CCN1C1CCCCC1` (centres undefined), the cell number change is -27.1%. Further, the AC50 under setting [1] is 3660 nM [falling, full curve].

As to `Cc1nnc(C)n1N`, the cell number change was -21%. Under setting [1], the AC50 is 731 nM [falling, full curve].

For the molecule `N#CCC(=O)Nc1ccc(C(=O)OCC(=O)NNC(=O)c2ccc(Cl)cc2)cc1`, the cell number change turned out to be 0.838%. Further, the AC50 under setting [1] is 731 nM [falling, full curve, poor fit].

As for `O=C(O)c1[nH]c2ccccc2c1C(c1cc(Br)ccc1O)c1c(C(=O)O)[nH]c2ccccc12`, the cell number change is -13.2%.

As for `COC(=O)c1ccc(NC(=O)CS(=O)(=O)Cc2ccccc2)cc1`, the cell number change is -12.8%.

On to `NCCNC(=O)Cc1cccc(NC(=O)Cc2ccc(Nc3ncnc4c3ncn4[C@@H]3O[C@H](CO)[C@@H](O)[C@H]3O)cc2)c1`, for which the cell number change was -19%. For the same molecule, the AC50 under setting [1] was 5800 nM [falling, full curve, poor fit].

In the case of `Cc1ccc(C)c(S(=O)(=O)NCCC(=O)N2CCCC(C(N)=O)C2)c1` (centres undefined), the cell number change was -1.82%.

As for `CCOc1ccccc1NC(=O)CN(c1ccc(OC)cc1)S(=O)(=O)c1c(C)noc1C`, the cell number change is -4.76%. For the same molecule, the AC50 under setting [1] was 461 nM [falling, single point].

As for `Cc1noc(C)c1COC(=O)COc1ccc2c(C)cc(=O)oc2c1`, the cell number change was determined as 15.9%. Under setting [2], the AC50 was 5.17 nM [rising, full curve, poor fit]. The AC50 under setting [1] is 820 nM [rising, full curve].

Take `S=C(NCCN1CCOCC1)N/N=C/c1c2ccccc2cc2ccccc12`: the cell number change is 32.4%. Under setting [2], the AC50 was 1840 nM [rising, full curve]. Also, under setting [1], the AC50 was 2910 nM [rising, partial curve].

With `Cc1cccc(OCc2nnc(SCC(=O)Nc3ccc(C)c(Cl)c3)o2)c1`, the cell number change was found to be 2.97%. Besides, the concentration at half-maximal activity (AC50) under setting [1] was 651 nM [falling, single point].

Turning to `CC(=O)N1CCc2cc(S(=O)(=O)CCC(=O)NCCc3ccccc3)ccc21`, the cell number change was 3.42%. Further, the AC50 under setting [1] is 20600 nM [rising, single point].

As for `CCCn1c(NC(=O)c2ccccc2Br)nc2ccccc21`, the cell number change was -21.4%. Also, the AC50 under setting [1] was 29100 nM [falling, single point].

As to `Cc1nn(C)c(C)c1Sc1ccccc1N`, under setting [1], the AC50 is 65.1 nM [falling, full curve].

Regarding `CCOc1ccc(S(=O)(=O)N2CCCC(C(=O)Nc3cc(C)cc(C)c3)C2)cc1` (centres undefined), the cell number change stood at 38.7%. Moreover, the AC50 under setting [2] was 14600 nM [rising, partial curve, poor fit]. Moreover, under setting [1], the concentration at half-maximal activity (AC50) is 29100 nM [rising, single point].

`O=C(Nc1cc(S(=O)(=O)Nc2ccc(Cl)cc2)ccc1O)c1ccc(S(=O)(=O)N2CCCCCC2)cc1`: the cell number change stood at 30.8%. Besides, the AC50 under setting [2] was 9200 nM [rising, single point]. Besides, the AC50 under setting [1] is 5.17 nM [falling, full curve, poor fit].

As for `Cc1ccc(CN2CC(C(=O)Nc3nnc(SCc4c(Cl)cccc4Cl)s3)CC2=O)cc1` (centres undefined), the cell number change was -34.8%. Besides, under setting [2], the AC50 was 20600 nM [falling, single point].

As for `O=C(Nc1cccc(O)c1)c1cc(-c2ccco2)on1`, the cell number change was -22.6%. In addition, the concentration at half-maximal activity (AC50) under setting [2] is 146 nM [falling, full curve, poor fit]. Under setting [1], the AC50 was 651 nM [falling, single point].

As to `O=C(COc1ncnc2ccccc12)c1ccc2c(c1)OCCO2`, the cell number change was -34.6%. In addition, the AC50 under setting [2] was 32600 nM [falling, partial curve, poor fit]. Also, the AC50 under setting [1] was 51.7 nM [falling, full curve, poor fit].

In the case of `Cc1ccc(C(=O)O)cc1N1C(=O)c2cccc3cc(Br)cc(c23)C1=O`, the cell number change was -18%. Moreover, the AC50 under setting [1] is 184 nM [falling, full curve, poor fit].

Turning to `O=C(Nc1ccc(F)cc1)Nc1nnc(COc2ccccc2F)s1`, the cell number change is -34.8%. Besides, the AC50 under setting [2] is 20000 nM [falling, partial curve, poor fit]. The AC50 under setting [1] is 17800 nM [falling, partial curve, poor fit].

With `C/C(=N\NC(=O)C1(C)CC1(Br)Br)c1cccc(NC(=O)c2ccc(C)o2)c1` (centres undefined), the cell number change is -48.8%. In addition, under setting [2], the AC50 was 18400 nM [falling, single point]. For the same molecule, the AC50 under setting [1] is 3660 nM [falling, full curve, poor fit].

With `CCCc1ccc(Oc2cc(NN3CCCCC3)c([N+](=O)[O-])cc2[N+](=O)[O-])cc1`, the cell number change stood at 15%.

`COc1ccc(/C=C/C(=O)OC2CCCCC2CN(C)C)cc1` (centres undefined): the cell number change turned out to be 0.106%. The AC50 under setting [1] is 517 nM [falling, single point].

`COC(=O)C(Nc1ccccc1Cl)(c1cc(C)c(O)c(C)c1)C(F)(F)F` (centres undefined): the cell number change was -87.8%. The AC50 under setting [2] was 29100 nM [falling, single point]. The AC50 under setting [1] is 11600 nM [falling, single point].

Regarding `COc1ccc(S(=O)(=O)Cc2ccc(C(=O)N3CCN(c4ccccc4)CC3)o2)cc1`, the cell number change was determined as 76.5%. Besides, the AC50 under setting [2] was 29100 nM [rising, single point].

As to `COC(=O)c1ccc(/C=C2\Oc3ccccc3NC2=O)cc1`, the cell number change was determined as 0.173%.

Take `CS(=O)(=O)Nc1cccc(C(=O)OCCCOc2ccc(F)cc2)c1`: the cell number change was -29.7%.

On to `COc1ccc(-n2c3c(c(=O)[nH]c2=O)C(NC(C)=O)(C(F)(F)F)C(=O)N3)cc1` (centres undefined), for which the cell number change was -0.228%. The AC50 under setting [2] was 1460 nM [rising, partial curve, poor fit].

Regarding `Cc1noc(C)c1COC(=O)c1cc2c(C)nn(-c3ccc(F)cc3)c2s1`, the cell number change was -18.9%. Besides, the AC50 under setting [2] was 461 nM [falling, full curve, poor fit]. The AC50 under setting [1] is 8200 nM [falling, partial curve, poor fit].

Turning to `Cc1ccc(C(=O)Nc2ccc(C(=O)O)cc2)cc1S(=O)(=O)Nc1cccc([N+](=O)[O-])c1`, the cell number change was 23.8%. Under setting [1], the AC50 was 517 nM [rising, full curve].

Take `O=C(Cn1nc(Cc2cccnc2)c2ccccc2c1=O)NCc1ccc(F)cc1`: the AC50 under setting [1] is 4.11 nM [rising, full curve, poor fit].

With `CC1(C)CC[C@]2(C(=O)O)CC[C@]3(C)C(=CCC4[C@@]5(C)CC[C@H](O)C(C)(C)C5CC[C@]43C)C2C1` (some centres undefined), the cell number change stood at 25.8%. For the same molecule, the AC50 under setting [1] is 16400 nM [rising, single point].

Regarding `COc1ccc(OC)c(-c2cc(C(=O)N/N=C(\C)c3cccnc3)c3ccccc3n2)c1`, the cell number change is -30.2%. Also, the AC50 under setting [2] is 820 nM [rising, partial curve]. The AC50 under setting [1] was 580 nM [rising, single point].

Consider `O=C1c2ccccc2-c2nccnc21`, for which the cell number change is -15.6%. Also, the AC50 under setting [1] is 103 nM [rising, full curve, poor fit].

On to `Clc1ccc(CSc2nnc([C@@H]3CCCN3)o2)cc1`, for which the cell number change stood at 94.6%. Besides, under setting [2], the AC50 was 2910 nM [rising, full curve]. The AC50 under setting [1] is 1160 nM [rising, full curve].

Consider `COc1ccc(CNC(=O)c2ccc(Cn3nc(C)cc3C)o2)cc1`, for which, under setting [2], the AC50 is 116 nM [rising, full curve, poor fit].

As to `COc1ccc(-c2[nH]c(-c3ccc(C)cc3)nc2SCC(=O)NCc2ccco2)cc1OC`, the cell number change was -22%. Moreover, the AC50 under setting [1] was 18400 nM [falling, single point].

For `Cc1ccc(C)c(NC(=S)N2CCC(NC(=O)c3cccc(F)c3)CC2)c1`, the cell number change is -2.99%. In addition, under setting [1], the AC50 was 8200 nM [rising, partial curve].

In the case of `COc1ccc2oc(C(=O)OCC(=O)NCCc3ccccc3)c(C)c2c1`, the cell number change worked out at 15.5%. Moreover, the AC50 under setting [2] is 164 nM [falling, full curve, poor fit].

As to `O=C(CCC(=O)c1ccccc1)Nc1cccnc1`, the cell number change was -11.6%.

In the case of `CC(C)Oc1ccc(C2C(C(=O)c3ccco3)=C(O)C(=O)N2Cc2cccnc2)cc1` (centres undefined), the cell number change was -2.97%. Moreover, the AC50 under setting [1] was 1160 nM [falling, full curve, poor fit].

On to `Cc1ccc(CNC(=O)C2CCCN(S(=O)(=O)c3c(C)noc3C)C2)cc1` (centres undefined), for which the cell number change worked out at 33.8%. Moreover, under setting [2], the AC50 is 11600 nM [rising, partial curve]. Moreover, the AC50 under setting [1] is 6510 nM [rising, single point].

`O=C(CSC1=NCCS1)N1CCOCC1`: the cell number change was -13.1%. For the same molecule, under setting [1], the AC50 was 29100 nM [falling, partial curve].

As for `O=C(N/N=C1\CC2CC=CC12)c1ccc(O)cc1` (centres undefined), the cell number change was -5.01%. Further, under setting [2], the AC50 was 130 nM [falling, full curve].

For the molecule `CC(=NCCc1c(C)[nH]c2ccc(C)cc12)C1=C(O)CC(c2ccccc2)CC1=O` (centres undefined), the cell number change was 7.06%.

Regarding `COc1cc(-c2nc3cnccn3c2Nc2c(C)cccc2C)ccc1O`, the cell number change is -20.4%. In addition, under setting [1], the AC50 was 6510 nM [rising, single point].

`CCN(CC)CCNC(=O)c1c(O)c2c([nH]c1=O)CCCC2`: the cell number change is -55.2%. For the same molecule, under setting [2], the AC50 was 6510 nM [falling, full curve]. Further, the AC50 under setting [1] is 6510 nM [falling, partial curve].

Consider `Cc1ccccc1Nc1nc(N)nc(COC(=O)[C@@H](NC(=O)c2c(F)cccc2F)C(C)C)n1`, for which the AC50 under setting [1] was 651 nM [rising, full curve].

As to `Cc1cc(=S)n(-c2ccccc2)n1C`, the cell number change is -24.5%. The AC50 under setting [2] was 92 nM [falling, full curve, poor fit]. For the same molecule, the AC50 under setting [1] is 2060 nM [falling, full curve, poor fit].

Broadly, the AC50 is the concentration at which the activity in the assay is half-maximal. Read a low AC50 as greater potency.
